At least one structure is not confirmed: it was looked up by name or label, or the drawing left a doubt.
Tested on: healthy, cyclic women
Experiment: Ovarian activity according the Hoogland-Skouby score during two 28-day treatment periods
Assay type: in vivo, human
Protocol: The tablets prepared in Example 1 were tested in a single-center, open-label, adaptive design study to evaluate the influence on hormonal and ovarian function and vaginal bleeding pattern of different higher dosages of LNG administered once daily for 28 days over two consecutive treatment cycles in healthy, cyclic women.
The first tested dosage was 0.095 mg per day. The choice of subsequent dosages depended on the occurrence of ovulations in the previous treatment groups. The study was stopped when the lowest dosage completely inhibiting ovulation was identified, and one higher and one lower dosage were investigated.
Subjects started study medication intake on the first day of menstrual bleeding after the pre-treatment cycle. One tablet was taken orally, around the same time every morning, during 56 consecutive days. […] At each visit the diameter of the largest follicle-like structure (FLS) and serum follicle-stimulating hormone (FSH), luteinizing hormone (LH), estradiol (E2) and P concentrations were measured.
The primary outcome parameter was ovarian activity according the Hoogland-Skouby score (Table 1), determined for each 28-day treatment period (Hoogland H J, Skouby S O. “Ultrasound evaluation of ovarian activity under oral contraceptives,” Contraception 1993; 47: pp. 583-90). […]

SMILES: C#C[C@]1(O)CC[C@H]2[C@@H]3CCC4=CC(=O)CC[C@@H]4[C@H]3CC[C@@]21CC (racemic) [LNG, levonorgestrel]
- Ovulation-inhibiting potency compared with the traditional LNG 0.03 mg POP (LNG 0.115 mg and 0.135 mg per day): higher
- Ovulation as defined by the Hoogland-Skouby score (LNG 0.135 mg per day (highest dose group)): none of the subjects ovulated
